Measured values: PMC9282995
Results are given in words; binding and its absence hold for the method and conditions named. Binding seen in cells or lysates may run through a third protein. Some results given as binding are weak or reduced against the parent protein; the word gives no strength. Sequences can lack the tags named with a protein.

Sequences of proteins named here, by UniProt entry; tags and fusion partners are left off.
UniProt O00303: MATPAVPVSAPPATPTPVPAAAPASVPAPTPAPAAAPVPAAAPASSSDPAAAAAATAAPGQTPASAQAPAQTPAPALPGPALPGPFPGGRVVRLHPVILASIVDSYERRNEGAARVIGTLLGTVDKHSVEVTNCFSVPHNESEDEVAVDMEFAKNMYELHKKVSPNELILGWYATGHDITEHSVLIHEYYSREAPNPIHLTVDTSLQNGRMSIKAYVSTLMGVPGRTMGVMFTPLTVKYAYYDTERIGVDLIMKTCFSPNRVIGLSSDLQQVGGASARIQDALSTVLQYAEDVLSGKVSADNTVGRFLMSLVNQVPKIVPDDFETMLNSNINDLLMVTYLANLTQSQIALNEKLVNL
UniProt P27816: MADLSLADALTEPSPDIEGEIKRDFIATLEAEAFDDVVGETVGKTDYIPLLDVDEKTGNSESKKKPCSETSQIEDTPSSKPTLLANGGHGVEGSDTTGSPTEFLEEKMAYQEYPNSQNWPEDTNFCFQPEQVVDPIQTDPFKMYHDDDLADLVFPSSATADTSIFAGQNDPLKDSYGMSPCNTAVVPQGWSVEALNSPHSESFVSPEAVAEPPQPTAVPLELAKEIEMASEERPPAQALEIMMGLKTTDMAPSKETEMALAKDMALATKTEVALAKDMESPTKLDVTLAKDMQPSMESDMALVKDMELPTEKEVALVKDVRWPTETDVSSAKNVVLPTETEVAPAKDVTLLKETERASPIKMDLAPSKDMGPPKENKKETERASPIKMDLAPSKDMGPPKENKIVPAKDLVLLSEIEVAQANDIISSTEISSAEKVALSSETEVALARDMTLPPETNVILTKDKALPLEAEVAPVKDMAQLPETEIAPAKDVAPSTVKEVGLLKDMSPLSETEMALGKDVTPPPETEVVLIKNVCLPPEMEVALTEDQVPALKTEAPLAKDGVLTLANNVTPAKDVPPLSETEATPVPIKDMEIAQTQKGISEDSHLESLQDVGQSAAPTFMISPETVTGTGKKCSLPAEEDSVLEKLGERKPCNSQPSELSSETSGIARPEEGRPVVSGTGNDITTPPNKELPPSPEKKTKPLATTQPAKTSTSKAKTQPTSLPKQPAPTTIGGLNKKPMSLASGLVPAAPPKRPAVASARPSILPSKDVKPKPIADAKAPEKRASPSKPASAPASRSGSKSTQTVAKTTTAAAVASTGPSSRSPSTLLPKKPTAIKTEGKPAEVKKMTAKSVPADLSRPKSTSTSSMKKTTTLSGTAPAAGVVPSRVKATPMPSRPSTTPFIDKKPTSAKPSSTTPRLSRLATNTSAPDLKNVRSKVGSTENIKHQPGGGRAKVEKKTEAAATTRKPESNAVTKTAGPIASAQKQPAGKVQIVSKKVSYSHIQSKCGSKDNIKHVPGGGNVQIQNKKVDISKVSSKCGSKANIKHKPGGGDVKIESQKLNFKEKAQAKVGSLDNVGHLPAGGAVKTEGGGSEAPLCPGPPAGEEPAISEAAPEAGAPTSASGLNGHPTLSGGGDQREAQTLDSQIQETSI
UniProt P09874: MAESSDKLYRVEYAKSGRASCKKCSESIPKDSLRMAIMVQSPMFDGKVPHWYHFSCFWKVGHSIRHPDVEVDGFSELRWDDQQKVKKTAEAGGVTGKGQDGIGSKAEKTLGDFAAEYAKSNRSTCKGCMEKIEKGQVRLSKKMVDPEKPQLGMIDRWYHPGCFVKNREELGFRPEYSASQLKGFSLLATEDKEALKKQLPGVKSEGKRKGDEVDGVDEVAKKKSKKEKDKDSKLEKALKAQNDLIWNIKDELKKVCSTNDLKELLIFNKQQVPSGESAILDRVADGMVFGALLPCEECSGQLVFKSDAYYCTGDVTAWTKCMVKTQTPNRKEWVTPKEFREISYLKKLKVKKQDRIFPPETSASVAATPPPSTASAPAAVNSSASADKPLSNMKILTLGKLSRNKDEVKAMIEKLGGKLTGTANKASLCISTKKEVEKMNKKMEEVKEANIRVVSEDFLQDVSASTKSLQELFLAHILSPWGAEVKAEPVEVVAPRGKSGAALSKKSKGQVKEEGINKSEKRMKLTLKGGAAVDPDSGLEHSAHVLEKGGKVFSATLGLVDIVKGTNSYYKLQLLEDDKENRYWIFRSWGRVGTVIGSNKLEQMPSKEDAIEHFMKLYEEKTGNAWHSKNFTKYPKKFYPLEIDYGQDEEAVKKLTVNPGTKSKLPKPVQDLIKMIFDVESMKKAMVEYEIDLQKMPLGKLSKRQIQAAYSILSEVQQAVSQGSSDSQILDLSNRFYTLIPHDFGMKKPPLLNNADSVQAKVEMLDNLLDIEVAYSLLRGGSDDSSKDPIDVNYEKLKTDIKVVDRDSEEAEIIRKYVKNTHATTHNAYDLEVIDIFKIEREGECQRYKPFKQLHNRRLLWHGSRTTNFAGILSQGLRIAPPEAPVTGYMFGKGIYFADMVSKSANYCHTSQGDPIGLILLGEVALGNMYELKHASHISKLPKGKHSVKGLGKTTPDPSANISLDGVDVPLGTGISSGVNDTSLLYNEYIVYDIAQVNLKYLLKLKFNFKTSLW

Target: T1, Bone morphogenetic protein/retinoic acid inducible neural-specific 3 (BRINP3), 3x Flag-tagged (UniProt Q76B58)
T1 sequence: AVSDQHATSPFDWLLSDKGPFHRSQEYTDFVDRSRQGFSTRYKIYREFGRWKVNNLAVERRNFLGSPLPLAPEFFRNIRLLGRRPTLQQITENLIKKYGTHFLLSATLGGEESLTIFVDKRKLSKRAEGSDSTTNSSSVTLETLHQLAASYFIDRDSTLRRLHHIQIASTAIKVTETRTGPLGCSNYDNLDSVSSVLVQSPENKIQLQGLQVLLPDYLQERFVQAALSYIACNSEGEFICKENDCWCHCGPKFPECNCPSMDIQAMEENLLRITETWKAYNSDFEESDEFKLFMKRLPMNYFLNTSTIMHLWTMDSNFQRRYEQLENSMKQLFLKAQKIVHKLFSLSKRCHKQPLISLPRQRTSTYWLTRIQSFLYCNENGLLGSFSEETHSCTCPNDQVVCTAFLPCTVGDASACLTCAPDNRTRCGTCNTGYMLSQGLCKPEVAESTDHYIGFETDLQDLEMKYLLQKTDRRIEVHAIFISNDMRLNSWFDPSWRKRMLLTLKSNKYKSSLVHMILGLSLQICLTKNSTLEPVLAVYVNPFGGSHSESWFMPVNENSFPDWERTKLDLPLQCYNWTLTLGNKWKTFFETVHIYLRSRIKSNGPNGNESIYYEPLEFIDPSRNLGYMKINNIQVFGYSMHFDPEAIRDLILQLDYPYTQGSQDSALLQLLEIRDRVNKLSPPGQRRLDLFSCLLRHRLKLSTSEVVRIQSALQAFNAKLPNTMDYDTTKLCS
Test: co-IP; lysates of U2OS cells overexpressing Flag-BRINP3; IP lysis buffer with protease inhibitor cocktail; antibodies and protein A beads 4 h at 4°C; beads washed three times with lysis buffer; western blot

binding | Substance
binds | EIF3F (from UniProt O00303 1-357)
binds | Microtubule-associated protein 4 (MAP4) (from UniProt P27816 1-1152)
binds | PARP1 (from UniProt P09874 1-1014)
